From US10500249B2, “Compositions and methods for preventing or treating diseases, conditions, or processes characterized by aberrant fibroblast proliferation and extracellular matrix deposition” (MOERAE MATRIX, INC., priority 2014, dated 2019)
Some entries share one result that the patent states for a list of compounds.

Amino acid sequences for entries named in this document (tags omitted).
UniProt Q16644, whole entry: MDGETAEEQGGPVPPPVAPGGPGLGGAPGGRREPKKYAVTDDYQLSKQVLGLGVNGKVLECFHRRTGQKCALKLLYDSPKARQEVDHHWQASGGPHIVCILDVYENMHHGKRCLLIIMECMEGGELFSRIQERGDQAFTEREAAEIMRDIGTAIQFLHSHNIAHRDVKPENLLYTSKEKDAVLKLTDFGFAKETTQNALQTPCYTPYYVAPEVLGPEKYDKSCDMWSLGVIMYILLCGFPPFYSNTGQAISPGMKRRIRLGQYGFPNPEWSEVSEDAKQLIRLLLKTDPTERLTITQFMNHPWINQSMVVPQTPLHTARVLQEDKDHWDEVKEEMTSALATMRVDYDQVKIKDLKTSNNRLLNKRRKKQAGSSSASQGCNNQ
UniProt P49137, whole entry: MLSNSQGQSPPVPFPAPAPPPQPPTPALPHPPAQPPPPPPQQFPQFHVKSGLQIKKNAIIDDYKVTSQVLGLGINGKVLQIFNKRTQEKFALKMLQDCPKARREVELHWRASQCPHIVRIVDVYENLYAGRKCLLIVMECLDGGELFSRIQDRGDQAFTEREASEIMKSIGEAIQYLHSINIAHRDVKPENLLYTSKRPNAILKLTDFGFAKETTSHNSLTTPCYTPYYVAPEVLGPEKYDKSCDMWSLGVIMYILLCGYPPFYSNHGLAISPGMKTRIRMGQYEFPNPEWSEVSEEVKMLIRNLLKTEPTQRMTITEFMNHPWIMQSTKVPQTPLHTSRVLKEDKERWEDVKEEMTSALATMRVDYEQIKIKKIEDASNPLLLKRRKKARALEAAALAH

What was measured:
Assay in all cases: Kinase Profiling Assay
Settings in all cases: 100 μM, in vitro
MAPKAP-K3 (h) = MAPKAP-K3 (h) (Homo sapiens, UniProt Q16644); assay type: biochemical
Description: (§1) Every kinase activity measurement was conducted in duplicate.
(§2) Specifically, in these assays, a positively charged substrate is phosphorylated with a radiolabeled phosphate group from an ATP if the kinase is not inhibited by an inhibitor peptide. The positively charged substrate then is attracted to a negatively charged filter membrane, quantified with a scintillation counter, and compared to a 100% activity control.
(§3) In addition to determining the IC50 of the compound, the specificity of MK2 inhibitory peptides was assessed by examining activities of all 266 human kinases available for testing in the Millipore kinase profiling service (Table 1).

TrkB (h) = TrkB (h) (Homo sapiens, UniProt Q16620); assay type: biochemical
Description: as §1, §2, §3

MAPKAP-K2 (h) = MAPKAP-K2 (h) (Homo sapiens, UniProt P49137); assay type: biochemical
Description: as §1, §2, §3

CaMKI (h) = assay type: biochemical, human
Description: as §1, §2, §3

FAKLAARLYRKALARQLGVAA [MMI-0300]
more than 65%: inhibition of kinase activity of MK3 (MAPKAP-K3 (h)) | inhibition of kinase activity of TrkB (TrkB (h)) | inhibition of kinase activity of MK2 (MAPKAP-K2 (h)) | inhibition of kinase activity of CaMKI (CaMKI (h))

HRRIKAWLKKIKALARQLGVAA (Mammalian) [MMI-0500]
more than 65%: inhibition of kinase activity of MK3 (MAPKAP-K3 (h)) | inhibition of kinase activity of TrkB (TrkB (h)) | inhibition of kinase activity of MK2 (MAPKAP-K2 (h))

YARAAARQARAKALNRQLGVA (Mammalian) [MMI-0200]
more than 65%: inhibition of kinase activity of MK3 (MAPKAP-K3 (h)) | inhibition of kinase activity of TrkB (TrkB (h)) | inhibition of kinase activity of MK2 (MAPKAP-K2 (h)) | inhibition of kinase activity of CaMKI (CaMKI (h))

KAFAKLAARLYRKALARQLGVAA [MMI-0400]
more than 65%: inhibition of kinase activity of MK3 (MAPKAP-K3 (h)) | inhibition of kinase activity of TrkB (TrkB (h)) | inhibition of kinase activity of MK2 (MAPKAP-K2 (h)) | inhibition of kinase activity of CaMKI (CaMKI (h))
